Source: the supplement of paper PMC4604168 (melanoma cell lines)
This is one part of the list. Repeats are few or missing, and single values can be far off.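 Cells were imaged in 1,536-well plates, and nuclei stained with an antibody against cleaved PARP were counted against all DNA-stained nuclei to give the apoptosis fraction. Screening doses were chosen to leave most cells alive, and resting and induced cleaved-PARP levels differ strongly between cell lines.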

What was measured:
Assay in all cases: cleaved PARP positive nuclei fraction relative to DMSO control; melanoma cells; higher = more apoptosis
Details in all cases: library dose: low library concentration; 72 h
501Mel = system: 501Mel
A101D = system: A101D
A2058 = system: A2058
C32 = system: C32
CBRC008 = system: CBRC008 (line from a melanoma biopsy)
CBRC014 = system: CBRC014 (line from a melanoma biopsy)
CBRC016 = system: CBRC016 (line from a melanoma biopsy)
CBRC017 = system: CBRC017 (line from a melanoma biopsy)
COLO792 = system: COLO792
COLO800 = system: COLO800
COLO829 = system: COLO829
G361 = system: G361
IPC-298 = system: IPC-298
IST-MEL1 = system: IST-MEL1
LB2518-MEL = system: LB2518-MEL
LOXIMVI = system: LOXIMVI

| Structure (SMILES) | cleaved PARP positive nuclei fraction (501Mel) [%] | cleaved PARP positive nuclei fraction (A101D) [%] | cleaved PARP positive nuclei fraction (A2058) [%] | cleaved PARP positive nuclei fraction (C32) [%] | cleaved PARP positive nuclei fraction (CBRC008) [%] | cleaved PARP positive nuclei fraction (CBRC014) [%] | cleaved PARP positive nuclei fraction (CBRC016) [%] | cleaved PARP positive nuclei fraction (CBRC017) [%] | cleaved PARP positive nuclei fraction (COLO792) [%] | cleaved PARP positive nuclei fraction (COLO800) [%] | cleaved PARP positive nuclei fraction (COLO829) [%] | cleaved PARP positive nuclei fraction (G361) [%] | cleaved PARP positive nuclei fraction (IPC-298) [%] | cleaved PARP positive nuclei fraction (IST-MEL1) [%] | cleaved PARP positive nuclei fraction (LB2518-MEL) [%] | cleaved PARP positive nuclei fraction (LOXIMVI) [%] |
| --- | --- | --- | --- | --- | --- | --- | --- | --- | --- | --- | --- | --- | --- | --- | --- | --- |
| CCCCCCCCCCCCCCCCCCOP(=O)([O-])OC1CC[N+](C)(C)CC1 [Perifosine] + O=S(=O)(c1ccccc1)N(CC(F)(F)F)c1ccc(C(O)(C(F)(F)F)C(F)(F)F)cc1 [T0901317] (first compound 0.4 µM, partner dose 1.4 µM) | 35.2 | 14.6 | 134 | 190 | 167 | 98.4 | 64 | 102 | 56.6 | 56 | 169 | 123 | 32.6 | 117 | 158 | 91.7 |
| CC[C@]1(O)C[C@H]2CN(CCc3c([nH]c4ccccc34)[C@@](C(=O)OC)(c3cc4c(cc3OC)N(C=O)[C@H]3[C@@](O)(C(=O)OC)[C@H](OC(C)=O)[C@]5(CC)C=CCN6CC[C@]43[C@@H]65)C2)C1 [vincristine] + COc1cc(N2CCC(N3CCN(C)CC3)CC2)ccc1Nc1ncc(Cl)c(Nc2ccccc2S(=O)(=O)C(C)C)n1 [NVP-TAE684] (first compound 0.0001 µM, partner dose 0.08 µM) | 65 | 59.1 | 1700 | 155 | 288 | 218 | 68.3 | 104 | 108 | 107 | 165 | 86.1 | 85.9 | 166 | 129 | 90.5 |
| COc1cc([C@@H]2c3cc4c(cc3[C@@H](O[C@@H]3O[C@@H]5CO[C@@H](C)O[C@H]5[C@H](O)[C@H]3O)[C@H]3COC(=O)[C@H]23)OCO4)cc(OC)c1O [etoposide] + c1cc(-c2cnn3cc(-c4ccc(OCCN5CCCCC5)cc4)cnc23)ccn1 [Dorsomorphin] (first compound 0.02 µM, partner dose 0.4 µM) | 89.5 | 37.6 | 76.2 | 180 | 50.7 | 112 | 82.3 | 105 | 154 | 106 | 110 | 121 | 104 | 68.7 | 69.7 | 134 |
| CC[C@]1(O)C[C@H]2CN(CCc3c([nH]c4ccccc34)[C@@](C(=O)OC)(c3cc4c(cc3OC)N(C=O)[C@H]3[C@@](O)(C(=O)OC)[C@H](OC(C)=O)[C@]5(CC)C=CCN6CC[C@]43[C@@H]65)C2)C1 [vincristine] + COc1ccc(-c2ccc3c(N4CCOCC4)nc(N4C[C@@H](C)O[C@@H](C)C4)nc3n2)cc1CO [KU0063794] (first compound 0.0001 µM, partner dose 0.02 µM) | 74.1 | 25.3 | 433 | 86 | 174 | 73.3 | 53.9 | 86.4 | 219 | 100 | 103 | 80.9 | 326 | 103 | 62.8 | 118 |
| Cc1cn(-c2cc(NC(=O)c3ccc(C)c(Nc4nccc(-c5cccnc5)n4)c3)cc(C(F)(F)F)c2)cn1 [nilotinib] + CC(C)CCN1c2nc(Nc3cc(F)c(O)c(F)c3)ncc2N(C)C(=O)C1C [BID1870] (first compound 0.2 µM, partner dose 0.2 µM) | 73.4 | 24.3 | 107 | 52.2 | 155 | 102 | 83.9 | 94 | 42 | 126 | 99.6 | 96.8 | 45 | 43 | 71 | 124 |
| CCCCCCCCCCCCCCCCCCOP(=O)([O-])OC1CC[N+](C)(C)CC1 [Perifosine] + COc1ccc2c(c1)CCC1C2CCC2(C)C(NCCCCCCN3C(=O)C=CC3=O)CCC12 [U73122] (first compound 0.4 µM, partner dose 0.4 µM) | 68.8 | 34 | 482 | 167 | 146 | 112 | 146 | 88.8 | 107 | 133 | 213 | 35.1 | 46.2 | 56.9 | 69.2 | 216 |
| O=c1[nH]nc(Sc2ncc([N+](=O)[O-])s2)n1-c1ccc2c(c1)OCCO2 + Oc1cc(-c2nc(-c3ccccc3)[nH]c2-c2ccncc2)ccc1Cl [L779450] (first compound 0.2 µM, partner dose 0.2 µM) | 168 | 28.4 | 64.4 | 44.1 | 74.5 | 106 | 70.8 | 167 | 14 | 173 | 85.5 | 64.6 | 145 | 84.5 | 90.4 | 113 |
| N#CC[C@H](C1CCCC1)n1cc(-c2ncnc3[nH]ccc23)cn1 [ruxolitinib] + Cn1cc(/C=C2\C(=O)Nc3cccnc32)c2ccccc21 [GW441756] (first compound 1 µM, partner dose 0.4 µM) | 77.2 | 58.4 | 58.1 | 39.2 | 212 | 94.2 | 127 | 83.3 | 92.8 | 53.3 | 108 | 174 | 178 | 149 | 55.6 | 35.6 |
| COc1cc([C@@H]2c3cc4c(cc3[C@@H](O[C@@H]3O[C@@H]5CO[C@@H](C)O[C@H]5[C@H](O)[C@H]3O)[C@H]3COC(=O)[C@H]23)OCO4)cc(OC)c1O [etoposide] + COc1cc(N2CCC(N3CCN(C)CC3)CC2)ccc1Nc1ncc(Cl)c(Nc2ccccc2S(=O)(=O)C(C)C)n1 [NVP-TAE684] (first compound 0.02 µM, partner dose 0.08 µM) | 73.4 | 52.6 | 92.6 | 84.8 | 158 | 104 | 44 | 727 | 69 | 241 | 41.9 | 43.6 | 61.9 | 66.3 | 71.9 | 126 |
| O=C(Nc1cc(C(F)(F)F)cc(C(F)(F)F)c1)c1cc(Cl)ccc1O + c1cc(-c2cnn3cc(-c4ccc(OCCN5CCCCC5)cc4)cnc23)ccn1 [Dorsomorphin] (first compound 0.016 µM, partner dose 0.4 µM) | 94.4 | 25.2 | 32.7 | 38.6 | 116 | 96.5 | 42.5 | 99.1 | 117 | 88 | 129 | 85.2 | 30.2 | 97.5 | 61.4 | 63.4 |
| CC[C@]1(O)C[C@H]2CN(CCc3c([nH]c4ccccc34)[C@@](C(=O)OC)(c3cc4c(cc3OC)N(C=O)[C@H]3[C@@](O)(C(=O)OC)[C@H](OC(C)=O)[C@]5(CC)C=CCN6CC[C@]43[C@@H]65)C2)C1 [vincristine] + COc1cc2ncnc(Nc3ccc(Oc4ccccc4)cc3)c2cc1OC [SrcI1] (first compound 0.0001 µM, partner dose 2 µM) | 47.5 | 52.2 | 6680 | 124 | 198 | 136 | 81.2 | 113 | 48.6 | 99.9 | 318 | 75.1 | 95.1 | 153 | 64.7 | 101 |
| N#CC[C@H](C1CCCC1)n1cc(-c2ncnc3[nH]ccc23)cn1 [ruxolitinib] + CCc1ccc(CCOc2ccc(CC3SC(=O)NC3=O)cc2)nc1 [pioglitazone] (first compound 1 µM, partner dose 2 µM) | 65.1 | 5.57 | 125 | 80.2 | 151 | 94.1 | 116 | 97.5 | 150 | 9.78 | 121 | 83.4 | 175 | 137 | 68.3 | 65.7 |
| O=c1[nH]nc(Sc2ncc([N+](=O)[O-])s2)n1-c1ccc2c(c1)OCCO2 + O=C(O)C(=O)Nc1sc2c(c1C(=O)O)CCNC2 [TCS401] (first compound 0.2 µM, partner dose 1.66667 µM) | 77.2 | 20.5 | 44.7 | 42.7 | 44.9 | 101 | 54.1 | 72.7 | 52.3 | 76.2 | 71.1 | 246 | 92.5 | 96 | 34.9 | 85.3 |
| N#CC[C@H](C1CCCC1)n1cc(-c2ncnc3[nH]ccc23)cn1 [ruxolitinib] + O=C(Nc1ccccc1)c1cc([N+](=O)[O-])ccc1Cl [GW9662] (first compound 1 µM, partner dose 2 µM) | 84.5 | 18.8 | 57.4 | 38.3 | 75.7 | 128 | 145 | 103 | 134 | 95.2 | 116 | 114 | 191 | 64.1 | 60.4 | 50.1 |
| N#CC[C@H](C1CCCC1)n1cc(-c2ncnc3[nH]ccc23)cn1 [ruxolitinib] + COc1ccc(-c2ccc3c(N4CCOCC4)nc(N4C[C@@H](C)O[C@@H](C)C4)nc3n2)cc1CO [KU0063794] (first compound 1 µM, partner dose 0.02 µM) | 131 | 25.2 | 45.1 | 113 | 118 | 114 | 20.8 | 84.6 | 65 | 75.7 | 73.2 | 91.4 | 165 | 91.4 | 41.4 | 351 |
| O=c1[nH]nc(Sc2ncc([N+](=O)[O-])s2)n1-c1ccc2c(c1)OCCO2 + COc1ccc(-c2ccc3c(N4CCOCC4)nc(N4C[C@@H](C)O[C@@H](C)C4)nc3n2)cc1CO [KU0063794] (first compound 0.2 µM, partner dose 0.02 µM) | 34.6 | 29.9 | 46.4 | 118 | 106 | 158 | 52 | 93.6 | 78 | 97.6 | 95.6 | 50.1 | 91.5 | 132 | 70.8 | 94.4 |
| Cc1cn(-c2cc(NC(=O)c3ccc(C)c(Nc4nccc(-c5cccnc5)n4)c3)cc(C(F)(F)F)c2)cn1 [nilotinib] + CCN(CC)CCCCNc1ncc2cc(-c3cc(OC)cc(OC)c3)c(NC(=O)NC(C)(C)C)nc2n1 [PD173074] (first compound 0.2 µM, partner dose 0.1 µM) | 38.6 | 47.1 | 108 | 361 | 89.6 | 79.8 | 103 | 70.3 | 132 | 137 | 163 | 178 | 46.1 | 78.5 | 76.9 | 242 |

Part of the list above, with bars between the fields.
Structure (SMILES) | cleaved PARP positive nuclei fraction (501Mel) [%] | cleaved PARP positive nuclei fraction (A101D) [%] | cleaved PARP positive nuclei fraction (A2058) [%] | cleaved PARP positive nuclei fraction (C32) [%] | cleaved PARP positive nuclei fraction (CBRC008) [%] | cleaved PARP positive nuclei fraction (CBRC014) [%] | cleaved PARP positive nuclei fraction (CBRC016) [%] | cleaved PARP positive nuclei fraction (CBRC017) [%] | cleaved PARP positive nuclei fraction (COLO792) [%] | cleaved PARP positive nuclei fraction (COLO800) [%] | cleaved PARP positive nuclei fraction (COLO829) [%] | cleaved PARP positive nuclei fraction (G361) [%] | cleaved PARP positive nuclei fraction (IPC-298) [%] | cleaved PARP positive nuclei fraction (IST-MEL1) [%] | cleaved PARP positive nuclei fraction (LB2518-MEL) [%] | cleaved PARP positive nuclei fraction (LOXIMVI) [%]
O=c1[nH]nc(Sc2ncc([N+](=O)[O-])s2)n1-c1ccc2c(c1)OCCO2 + O=C(O)C(=O)Nc1sc2c(c1C(=O)O)CCNC2 [TCS401] (first compound 0.2 µM, partner dose 1.66667 µM) | 77.2 | 20.5 | 44.7 | 42.7 | 44.9 | 101 | 54.1 | 72.7 | 52.3 | 76.2 | 71.1 | 246 | 92.5 | 96 | 34.9 | 85.3
N#CC[C@H](C1CCCC1)n1cc(-c2ncnc3[nH]ccc23)cn1 [ruxolitinib] + O=C(Nc1ccccc1)c1cc([N+](=O)[O-])ccc1Cl [GW9662] (first compound 1 µM, partner dose 2 µM) | 84.5 | 18.8 | 57.4 | 38.3 | 75.7 | 128 | 145 | 103 | 134 | 95.2 | 116 | 114 | 191 | 64.1 | 60.4 | 50.1
N#CC[C@H](C1CCCC1)n1cc(-c2ncnc3[nH]ccc23)cn1 [ruxolitinib] + COc1ccc(-c2ccc3c(N4CCOCC4)nc(N4C[C@@H](C)O[C@@H](C)C4)nc3n2)cc1CO [KU0063794] (first compound 1 µM, partner dose 0.02 µM) | 131 | 25.2 | 45.1 | 113 | 118 | 114 | 20.8 | 84.6 | 65 | 75.7 | 73.2 | 91.4 | 165 | 91.4 | 41.4 | 351
O=c1[nH]nc(Sc2ncc([N+](=O)[O-])s2)n1-c1ccc2c(c1)OCCO2 + COc1ccc(-c2ccc3c(N4CCOCC4)nc(N4C[C@@H](C)O[C@@H](C)C4)nc3n2)cc1CO [KU0063794] (first compound 0.2 µM, partner dose 0.02 µM) | 34.6 | 29.9 | 46.4 | 118 | 106 | 158 | 52 | 93.6 | 78 | 97.6 | 95.6 | 50.1 | 91.5 | 132 | 70.8 | 94.4
